Results are given in words; binding and its absence hold for the method and conditions named. In cells and extracts the contact can be indirect. Some entries that bind do so weakly or less than the wild type. Sequences can lack the tags named with a protein.
T1: SAMD1 FL (1-538), tagged, expressed in HEK293 (UniProt Q6SPF0)
T1 sequence: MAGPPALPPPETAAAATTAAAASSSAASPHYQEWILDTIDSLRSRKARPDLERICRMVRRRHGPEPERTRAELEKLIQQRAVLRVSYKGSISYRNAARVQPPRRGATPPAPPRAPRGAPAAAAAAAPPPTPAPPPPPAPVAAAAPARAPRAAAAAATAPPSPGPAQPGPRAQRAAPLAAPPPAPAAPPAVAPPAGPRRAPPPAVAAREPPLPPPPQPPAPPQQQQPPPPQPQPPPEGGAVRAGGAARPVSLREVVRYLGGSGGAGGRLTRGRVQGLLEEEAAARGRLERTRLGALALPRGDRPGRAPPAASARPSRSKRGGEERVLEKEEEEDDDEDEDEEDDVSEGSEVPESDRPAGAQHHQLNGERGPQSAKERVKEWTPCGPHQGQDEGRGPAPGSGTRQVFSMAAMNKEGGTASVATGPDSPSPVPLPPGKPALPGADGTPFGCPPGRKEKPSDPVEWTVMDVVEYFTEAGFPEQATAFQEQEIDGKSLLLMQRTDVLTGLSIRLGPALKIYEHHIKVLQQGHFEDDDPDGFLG

T2: SAMD1 ΔSAM (1-450), tagged, expressed in HEK293 (UniProt Q6SPF0)
T2 sequence: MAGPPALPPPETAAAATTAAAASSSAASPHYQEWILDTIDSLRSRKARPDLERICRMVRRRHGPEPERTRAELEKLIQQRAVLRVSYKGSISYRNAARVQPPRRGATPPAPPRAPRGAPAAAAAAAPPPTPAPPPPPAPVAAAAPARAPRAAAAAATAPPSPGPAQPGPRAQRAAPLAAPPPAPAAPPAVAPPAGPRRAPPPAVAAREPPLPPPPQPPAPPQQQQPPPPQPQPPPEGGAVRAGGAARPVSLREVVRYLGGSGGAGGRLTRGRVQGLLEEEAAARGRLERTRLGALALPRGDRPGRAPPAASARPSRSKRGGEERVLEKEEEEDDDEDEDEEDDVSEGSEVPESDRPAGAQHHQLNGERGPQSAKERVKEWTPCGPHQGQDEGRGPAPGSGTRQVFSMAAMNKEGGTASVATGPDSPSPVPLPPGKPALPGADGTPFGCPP


What was measured:
Test in all cases: co-IP; ectopic co-IP in HEK293 cells transfected with 3xHA- or FLAG-tagged constructs; ANTI-FLAG M2 beads, about 3 h at 4 °C, Co-IP buffer (50 mM Tris/Cl pH 7.5, 150 mM NaCl, 1% Triton X-100, 1 mM EDTA, 10% glycerol); western blot; in some panels cells treated with DMSO or 20 nM ORY-1001
[1] = target: T1, SAMD1 FL (1-538), tagged, expressed in HEK293
[2] = target: KDM1A IDR (1-172), tagged, expressed in HEK293 (UniProt O60341)
[3] = target: KDM1A IDR/SWIRM/AOD-N (1-417), tagged, expressed in HEK293 (UniProt O60341)
[4] = target: T2, SAMD1 ΔSAM (1-450), tagged, expressed in HEK293

binding [1] | binding [2] | binding [3] | binding [4] | Binder
binds | – | – | – | FBXO11 IDR + F-box (1-300), tagged, expressed in HEK293 (domain or fragment, UniProt Q86XK2-6 1-300) MVAEESGPGAQNSPYQLRRKTLLPKRTACPTKNSMEGASTSTTENFGHRAKRARVSGKSQDLSAAPAEQYLQEKLPDEVVLKIFSYLLEQDLCRAACVCKRFSELANDPILWKRLYMEVFEYTRPMMHPEPGKFYQINPEEYEHPNPWKESFQQLYKGAHVKPGFAEHFYSNPARYKGRENMLYYDTIEDALGGVQEAHFDGLIFVHSGIYTDEWIYIESPITMIGAAPGKVADKVIIENTRDSTFVFMEGSEDAYVGYMTIRFNPDDKSAQHHNAHHCLEITVNCSPIIDHCIIRSTCT
binds | binds | binds | binds | FBXO11 FL (1-843, Q86XK2-6), tagged, expressed in HEK293 (protein, UniProt Q86XK2-6 1-843) MVAEESGPGAQNSPYQLRRKTLLPKRTACPTKNSMEGASTSTTENFGHRAKRARVSGKSQDLSAAPAEQYLQEKLPDEVVLKIFSYLLEQDLCRAACVCKRFSELANDPILWKRLYMEVFEYTRPMMHPEPGKFYQINPEEYEHPNPWKESFQQLYKGAHVKPGFAEHFYSNPARYKGRENMLYYDTIEDALGGVQEAHFDGLIFVHSGIYTDEWIYIESPITMIGAAPGKVADKVIIENTRDSTFVFMEGSEDAYVGYMTIRFNPDDKSAQHHNAHHCLEITVNCSPIIDHCIIRSTCTVGSAVCVSGQGACPTIKHCNISDCENVGLYITDHAQGIYEDNEISNNALAGIWVKNHGNPIIRRNHIHHGRDVGVFTFDHGMGYFESCNIHRNRIAGFEVKAYANPTVVRCEIHHGQTGGIYVHEKGRGQFIENKIYANNFAGVWITSNSDPTIRGNSIFNGNQGGVYIFGDGRGLIEGNDIYGNALAGIQIRTNSCPIVRHNKIHDGQHGGIYVHEKGQGVIEENEVYSNTLAGVWVTTGSTPVLRRNRIHSGKQVGVYFYDNGHGVLEDNDIYNHMYSGVQIRTGSNPKIRRNKIWGGQNGGILVYNSGLGCIEDNEIFDNAMAGVWIKTDSNPTLRRNKIHDGRDGGICIFNGGRGLLEENDIFRNAQAGVLISTNSHPILRKNRIFDGFAAGIEITNHATATLEGNQIFNNRFGGLFLASGVNVTMKDNKIMNNQDAIEKAVSRGQCLYKISSYTSYPMHDFYRCHTCNTTDRNAICVNCIKKCHQGHDVEFIRHDRFFCDCGAGTLSNPCTLAGEPTHDTDTLYDSAPPIESNTLQHN
binds | – | – | – | FBXO11 ΔUBR (1-737), tagged, expressed in HEK293 (domain or fragment, UniProt Q86XK2-6 1-737) MVAEESGPGAQNSPYQLRRKTLLPKRTACPTKNSMEGASTSTTENFGHRAKRARVSGKSQDLSAAPAEQYLQEKLPDEVVLKIFSYLLEQDLCRAACVCKRFSELANDPILWKRLYMEVFEYTRPMMHPEPGKFYQINPEEYEHPNPWKESFQQLYKGAHVKPGFAEHFYSNPARYKGRENMLYYDTIEDALGGVQEAHFDGLIFVHSGIYTDEWIYIESPITMIGAAPGKVADKVIIENTRDSTFVFMEGSEDAYVGYMTIRFNPDDKSAQHHNAHHCLEITVNCSPIIDHCIIRSTCTVGSAVCVSGQGACPTIKHCNISDCENVGLYITDHAQGIYEDNEISNNALAGIWVKNHGNPIIRRNHIHHGRDVGVFTFDHGMGYFESCNIHRNRIAGFEVKAYANPTVVRCEIHHGQTGGIYVHEKGRGQFIENKIYANNFAGVWITSNSDPTIRGNSIFNGNQGGVYIFGDGRGLIEGNDIYGNALAGIQIRTNSCPIVRHNKIHDGQHGGIYVHEKGQGVIEENEVYSNTLAGVWVTTGSTPVLRRNRIHSGKQVGVYFYDNGHGVLEDNDIYNHMYSGVQIRTGSNPKIRRNKIWGGQNGGILVYNSGLGCIEDNEIFDNAMAGVWIKTDSNPTLRRNKIHDGRDGGICIFNGGRGLLEENDIFRNAQAGVLISTNSHPILRKNRIFDGFAAGIEITNHATATLEGNQIFNNRFGGLFLASGVNVTMKDNKIMN
